Values from PubChem BioAssay AID504791 (Drosophila RNAi Screening Center, 2011).
Test: 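Factors in Argonaute-based small RNA production and activity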 (primary screen). Cells: Drosophila S2-derived reporter cells. Reagents: long dsRNA against Drosophila genes, about 150-250 ng dsRNA per well (siRNA assay); about 80-120 ng (miRNA assay). Time to read-out: about 5 days (siRNA assay); about 4 days (miRNA assay). Conditions: copper sulfate induction of reporters: 25 µM (siRNA assay); 200 mM stated (miRNA assay), 1-2 days before reading. Measured: 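Dual luciferase assay: Renilla to firefly signal ratio in each well, scaled to the mean ratio of its plate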. Reading the numbers: siRNA reporter hit score: higher = 3 marks a strong hit with raised ratio; -3 a strong hit with lowered ratio. Hit rule: 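a well was a first-pass pick when its plate-scaled ratio rose above 1.5 (siRNA assay) or 1.6 (miRNA assay), or dropped below 0.6; a gene counted only if two separate dsRNAs agreed on retest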.
The deposit covers about 23,000 reagents; below is an unselected part of those with a known target gene and a result. Over the whole deposit, 199 (0.86%) were called active. 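Plate-scaled ratios behind the calls are not deposited; printed light signals are raw; many rows marked increased or decreased are still called inactive.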 Reagents against one gene are numbered here.

| gene | dsRNA no. | siRNA reporter hit score | stable siRNA reporter change | miRNA reporter change | stable assay Renilla, run 1 (luminescence) | stable assay firefly, run 1 (luminescence) | Outcome |
| --- | --- | --- | --- | --- | --- | --- | --- |
| CG42471 (GeneID 8674020) | 1 | – | – | – | 4456 | 3.64e5 | inactive |
| CG34229 (GeneID 5740848) | 1 | – | – | – | 5080 | 2.35e5 | inactive |
| nxf2 (GeneID 39843) | 1 | – | – | – | 10044 | 4.20e5 | inactive |
| Blos3 (GeneID 5740347) | 1 | – | – | – | 3543 | 3.97e5 | inactive |
| hpRNA:CR32207 (GeneID 10178801) | 1 | – | – | – | 6130 | 4.20e5 | inactive |
| CG15599 (GeneID 32503) | 1 | – | – | – | 5118 | 3.78e5 | inactive |
| Srx (GeneID 32768) | 1 | – | – | – | 4803 | 3.17e5 | inactive |
| ect (GeneID 44135) | 1 | – | – | – | 3883 | 4.52e5 | inactive |
| ect (GeneID 44135) | 2 | – | – | – | 6055 | 2.63e5 | inactive |
| ect (GeneID 44135) | 3 | – | – | – | 8655 | 5.72e5 | inactive |
| RpL36A (GeneID 34098) | 1 | – | – | – | 8130 | 3.63e5 | inactive |
| CIAPIN1 (GeneID 49424) | 1 | – | – | – | 10606 | 1.55e6 | inactive |
| Klp68D (GeneID 39332) | 1 | – | – | – | 7970 | 4.15e5 | inactive |
| CG30281 (GeneID 246525) | 1 | – | – | – | 21834 | 6.33e5 | inactive |
| Rab30 (GeneID 33988) | 1 | – | – | – | 7523 | 3.74e5 | inactive |
| CG3285 (GeneID 33547) | 1 | – | – | – | 24736 | 1.24e5 | inactive |
| Sodh2 (GeneID 41313) | 1 | – | – | – | 6587 | 3.92e5 | inactive |
| mam (GeneID 36555) | 1 | – | – | – | 5218 | 3.24e5 | inactive |
| mam (GeneID 36555) | 2 | – | – | – | 3844 | 1.49e5 | inactive |
| mam (GeneID 36555) | 3 | – | – | – | 4999 | 4.76e5 | inactive |
| CG43902 (GeneID 31948) | 1 | – | – | – | 5704 | 3.97e5 | inactive |
| CG31559 (GeneID 40749) | 1 | – | – | – | 6955 | 4.21e5 | inactive |
| CG31559 (GeneID 40749) | 2 | – | – | – | 7891 | 4.75e5 | inactive |
| CG33285 (GeneID 2768988) | 1 | – | – | – | 6823 | 4.04e5 | inactive |
| CG12362 (GeneID 39193) | 1 | – | – | – | 6847 | 5.50e5 | inactive |
| CG11906 (GeneID 37209) | 1 | – | – | – | 6638 | 4.32e5 | inactive |
| CG11191 (GeneID 35765) | 1 | – | – | – | 7283 | 2.50e5 | inactive |
| CG11191 (GeneID 35765) | 2 | – | – | – | 4112 | 2.34e5 | inactive |
| CG11626 (GeneID 42323) | 1 | – | – | – | 7352 | 4.31e5 | inactive |
| CG14830 (GeneID 38800) | 1 | – | – | – | 4543 | 3.59e5 | inactive |
| CG14830 (GeneID 38800) | 2 | – | – | – | 6579 | 4.78e5 | inactive |
| Smr (GeneID 32225) | 1 | – | reporter ratio raised past the hit cutoff | – | 6582 | 2.05e5 | inactive |
| Smr (GeneID 32225) | 2 | – | – | – | 4947 | 2.88e5 | inactive |
| Smr (GeneID 32225) | 3 | – | reporter ratio raised past the hit cutoff | – | 5051 | 1.66e5 | inactive |
| CG2901 (GeneID 31338) | 1 | – | – | – | 6574 | 5.75e5 | inactive |
| CG3511 (GeneID 37926) | 1 | – | – | – | 2.15e5 | 1.65e6 | inactive |
| CG1239 (GeneID 40706) | 1 | – | – | – | 11252 | 5.68e5 | inactive |
| CG10154 (GeneID 39509) | 1 | – | – | – | 6039 | 3.65e5 | inactive |
| CG14937 (GeneID 34591) | 1 | – | – | – | 7098 | 4.32e5 | inactive |
| Ae2 (GeneID 39147) | 1 | – | – | – | 3943 | 3.70e5 | inactive |
| Ae2 (GeneID 39147) | 2 | – | – | – | 8280 | 4.49e5 | inactive |
| CG4511 (GeneID 41305) | 1 | – | – | – | 6495 | 3.81e5 | inactive |

Part of the list above, reduced to “stable assay firefly, run 1 (luminescence)”:
mam (GeneID 36555) #3	4.76e5
CG43902 (GeneID 31948)	3.97e5
CG31559 (GeneID 40749) #1	4.21e5
CG31559 (GeneID 40749) #2	4.75e5
CG33285 (GeneID 2768988)	4.04e5
CG12362 (GeneID 39193)	5.50e5
CG11906 (GeneID 37209)	4.32e5
CG11191 (GeneID 35765) #1	2.50e5
CG11191 (GeneID 35765) #2	2.34e5
CG11626 (GeneID 42323)	4.31e5

Further results follow:
| gene | dsRNA no. | siRNA reporter hit score | stable siRNA reporter change | miRNA reporter change | stable assay Renilla, run 1 (luminescence) | stable assay firefly, run 1 (luminescence) | Outcome |
| --- | --- | --- | --- | --- | --- | --- | --- |
| Rpt1 (GeneID 35701) | 1 | -3 | reporter ratio raised past the hit cutoff | reporter ratio raised past the hit cutoff | 8379 | 2.37e5 | active |
| CG33773 (GeneID 3772436) | 1 | – | – | – | 6704 | 3.35e5 | inactive |
| Nop60B (GeneID 37873) | 1 | – | – | – | 15666 | 1.24e6 | inactive |
| Dif (GeneID 35045) | 1 | – | – | – | 7995 | 3.49e5 | inactive |
| Cyp6g2 (GeneID 36317) | 1 | – | – | – | 6508 | 3.28e5 | inactive |
| mio (GeneID 33399) | 1 | – | – | reporter ratio lowered past the hit cutoff | 8711 | 6.41e5 | inactive |
| mio (GeneID 33399) | 2 | – | – | – | 6938 | 4.68e5 | inactive |
| fzo (GeneID 42745) | 1 | – | – | – | 6530 | 3.22e5 | inactive |
| Grx1t (GeneID 37483) | 1 | – | – | – | 6439 | 3.80e5 | inactive |
| CG8860 (GeneID 36310) | 1 | – | – | – | 5983 | 3.62e5 | inactive |
| CG13437 (GeneID 37343) | 1 | – | – | – | 5422 | 4.33e5 | inactive |
| Ddr (GeneID 3346209) | 1 | – | – | – | 5063 | 3.40e5 | inactive |
| Ddr (GeneID 3346209) | 2 | – | – | – | 4876 | 3.36e5 | inactive |
| Ddr (GeneID 3346209) | 3 | – | – | – | 8390 | 5.00e5 | inactive |
| Ddr (GeneID 3346209) | 4 | – | – | – | 6222 | 6.79e5 | inactive |
| Ddr (GeneID 3346209) | 5 | – | – | – | 7084 | 5.90e5 | inactive |
| Ddr (GeneID 3346209) | 6 | – | – | – | 3700 | 3.30e5 | inactive |
| Amt (GeneID 41841) | 1 | – | – | – | 6763 | 3.07e5 | inactive |
| tos (GeneID 35119) | 1 | – | – | – | 7050 | 1.49e6 | inactive |
| CG6071 (GeneID 39308) | 1 | – | – | – | 5812 | 4.27e5 | inactive |
| mas (GeneID 38499) | 1 | – | – | – | 7689 | 4.57e5 | inactive |
| Gr36a (GeneID 117488) | 1 | – | – | – | 4511 | 5.25e5 | inactive |
| CG14947 (GeneID 34628) | 1 | – | – | – | 7631 | 4.01e5 | inactive |
| ranshi (GeneID 41041) | 1 | – | – | – | 7099 | 4.13e5 | inactive |
| eEF1alpha2 (GeneID 43736) | 1 | – | – | – | 7788 | 3.53e5 | inactive |
| eEF1alpha2 (GeneID 43736) | 2 | – | – | – | 6248 | 4.55e5 | inactive |
| CR30029 (GeneID 5740197) | 1 | – | – | – | 6214 | 4.59e5 | inactive |
| Hsp23 (GeneID 39077) | 1 | – | – | – | 7494 | 3.35e5 | inactive |
| Vps39 (GeneID 42192) | 1 | – | – | – | 8625 | 4.07e5 | inactive |
| CanA-14F (GeneID 8674098) | 1 | – | – | – | 5655 | 3.94e5 | inactive |
| CanA-14F (GeneID 8674098) | 2 | – | – | – | 2720 | 2.72e5 | inactive |
| kto (GeneID 44830) | 1 | – | – | – | 6859 | 2.62e5 | inactive |
| Arl1 (GeneID 39745) | 1 | – | – | – | 7531 | 3.70e5 | inactive |
| Dhpr (GeneID 39050) | 1 | – | – | – | 6258 | 5.08e5 | inactive |
| CG10764 (GeneID 36962) | 1 | – | – | – | 9411 | 3.37e5 | inactive |
| CG8032 (GeneID 41026) | 1 | – | – | – | 7212 | 4.78e5 | inactive |
| Nepl15 (GeneID 42701) | 1 | – | – | – | 10037 | 3.53e5 | inactive |
| Act57B (GeneID 37368) | 1 | – | reporter ratio lowered past the hit cutoff | – | 9673 | 1.35e6 | inactive |
| CG33771 (GeneID 3772424) | 1 | – | – | – | 4990 | 5.21e5 | inactive |
| Bsg (GeneID 318841) | 1 | – | – | – | 4635 | 3.53e5 | inactive |
| Bsg (GeneID 318841) | 2 | – | – | – | 4890 | 4.56e5 | inactive |
